Laboratory results reported in patent publication US12404312B2, “Engineered VEGF variants for retinal neuroprotection, promotion of axon growth and axon regeneration” (Massachusetts Eye and Ear Infirmary, priority 2018, dated 2025).
At least one compound was matched to its structure with a doubt left.

What was measured:
primary mouse RGC [1] = test: H2O2-induced cell death of primary mouse RGC (TUNEL staining); type: cell-based
Protocol: Cell death was analyzed by TUNEL staining and transgene expression by immunostaining. Percentage of viable RGC was determined by: (TUNEL-negative RGC with transgenes expression)/(total cell number by DAPI staining). […] The constructs were packaged into adeno-associated virus serotype 2 (AAV2) for efficient transduction and expression in human microvascular endothelial cells (hREC) and RGC. Transgenes expression was measured by western blot, qPCR and immunostaining. In hREC, VEGFR2, VCAM-1, E-selectin and tissue factor expression were measured by immunostaining or qPCR. VEGFR2 signaling, axon length, and synapse formation in RGC were measured by immunostaining. RGC survival was measured by TUNEL staining and intracellular [Ca2+] was measured using fura2/AM calcium imaging.

primary mouse RGC [2] = test: Axon and neurite formation in primary mouse RGC; type: cell-based
Description: FIG. 6 is a series of photomicrographs showing correlative fluorescence and electron microscopy showing extra long axons (>1400 μm) from some of the eVEGF-38 overexpressing primary RGC. Green arrows, eVEGF-38 overexpressing cells; blue arrows, untransduced primary mouse RGC.
FIGS. 7A and 7B are a series of bar graphs and dot plots showing that VEGFR2 signaling is required for the formation of long axons by primary RGC overexpressing eVEGF-38, eVEGF-53, and VEGF189. […] Recombinant VEGF121 protein was added to a final concentration of 2.5 nM. […] Labels: 38, eVEGF-38; 53, eVEGF-53; 189, VEGF189; UT, untreated. Data=mean±SD, n=15 fields from 3 independent wells per group, *P<0.05, **P<0.01, ***P<0.001, one-way ANOVA.
eVEGF-38 and eVEGF-53 localize to the cell membrane and comprise myc-tags. VEGF189 was constructed with a myc-tag. The constructs were packaged into adeno-associated virus serotype 2 (AAV2) for efficient transduction and expression in human microvascular endothelial cells (hREC) and RGC. Transgenes expression was measured by western blot, qPCR and immunostaining. In hREC, VEGFR2, VCAM-1, E-selectin and tissue factor expression were measured by immunostaining or qPCR. VEGFR2 signaling, axon length, and synapse formation in RGC were measured by immunostaining. RGC survival was measured by TUNEL staining and intracellular [Ca2+] was measured using fura2/AM calcium imaging.

Row | Structure (SMILES) | effect of PI3K inhibitor on protective effects of eVEGFs and VEGF189 against H2O2 (primary mouse RGC [1]; 10 μM H2O2) | effect of PI3K inhibitor on protective effects of eVEGFs and VEGF189 against H2O2 (primary mouse RGC [1]; 10 μM H2O2, listed as LY-294002) | effect of VEGFR2 inhibitor on neurite formation induced by eVEGF's and VEGF189 (primary mouse RGC [2])
1 | O=c1cc(N2CCOCC2)oc2c(-c3ccccc3)cccc12 [LY294002, reference compound] | abolished the protective effects | abolished | –
2 | CCN(CC)CCNC(=O)c1c(C)[nH]c(/C=C2\C(=O)Nc3ccc(F)cc32)c1C [sunitinib, reference compound] | – | – | completely inhibits
